For 26 compounds, survivor count and T/C results are on record in PubChem BioAssay AID248 (DTP/NCI, 2004).

SMILES strings stand for the structures. The list shows only some results of the screen, not a fair sample: it is rich in T/C values a quarter to a half above the control, in often repeated tests (any T/C) and in doses without a T/C. Further doses and runs are listed elsewhere. T/C is the treated group as % of the vehicle group. Some entries give survivors of the animals treated and no T/C: the source files T/C as zero there, which appears to mark a toxic dose or a test without result, not a measured value. Some survivor counts are full or nearly so, which does not show that the dose was tolerated: survival well below the control is almost never listed, so the zero probably covers shortened survival too. Survivors were counted at the toxicity check, usually on the fifth day, unless a day is given; later deaths do not show. Schedule codes are those of the source, read here as Q, the interval in days (D) or hours (H), X, the number of doses. Some entries were tested several times; the results are listed from low to high. Some schedule codes hold Z or #, which are not explained here. For survival time, the PubChem record calls one and a half times the control and up active, and a quarter to a half above the control has no call in these data; cut-offs in other NCI protocols can differ.

In the assay the test system is L1210 leukemia ip in BDF1 mice, survival T/C. The assay can be described thus: NCI In Vivo Anticancer Drug Screen. Data for tumor model L1210 Leukemia (intraperitoneal) in B6D2F1 (BDF1) mice. The conditions noted are these: T/C endpoint: mean survival time, higher T/C = longer survival.
Where [1] appears, read: dose: 200.0 mg/kg/injection, schedule: Q04DX003 (ip), vehicle: saline with Tween-80.
Setting [2] is: dose: 400.0 mg/kg/injection, schedule: Q04DX003 (ip), vehicle: saline with Tween-80.
Setting [3] is: dose: 400.0 mg/kg/injection, schedule: Q01DX009 (ip), vehicle: Klucel (hydroxypropylcellulose) (HPC).
Where [4] appears, read: dose: 100.0 mg/kg/injection, schedule: Q01DX009 (ip), vehicle: saline with Tween-80.
Setting [5] is: dose: 200.0 mg/kg/injection, schedule: Q04DX003 (ip), vehicle: saline.
[6] abbreviates: dose: 400.0 mg/kg/injection, schedule: Q04DX003 (ip), vehicle: saline.
Setting [7] is: dose: 400.0 mg/kg/injection, schedule: Q04DX003 (ip), vehicle: Klucel (hydroxypropylcellulose) (HPC).
The mark [8] stands for this setting: dose: 400.0 mg/kg/injection, schedule: Q01DX001 (ip), vehicle: carboxymethylcellulose (CMC).
Where [9] appears, read: dose: 50.0 mg/kg/injection, schedule: Q01DX009 (ip), vehicle: saline with Tween-80.
The mark [10] stands for this setting: dose: 200.0 mg/kg/injection, schedule: Q01DX009 (ip), vehicle: saline with Tween-80.
[11] abbreviates: dose: 400.0 mg/kg/injection, schedule: Q01DX009 (ip), vehicle: saline with Tween-80.

Regarding `COc1nc2ccccc2nc1N1CC1`, the survivor count (dose: 200.0 mg/kg/injection, schedule: Q01DX009 (ip), vehicle: acetone) is recorded as 2 of 6.

Consider `C[CH2][Sn]([CH2]C)([CH2]C)[O]C(=O)CO`, for which the survivor count reads like this: (dose: 25.0 mg/kg/injection, schedule: Q04DX002 (ip), vehicle: saline) 0 of 3; (dose: 50.0 mg/kg/injection, schedule: Q04DX002 (ip), vehicle: saline) 0 of 3; (dose: 100.0 mg/kg/injection, schedule: Q04DX002 (ip), vehicle: saline) 0 of 3; (dose: 200.0 mg/kg/injection, schedule: Q04DX002 (ip), vehicle: saline) 0 of 3; (dose: 400.0 mg/kg/injection, schedule: Q04DX002 (ip), vehicle: saline) 0 of 3.

Regarding `C/C=C(\Br)C(=O)O`, the survivor count is listed as 1 of 6 under setting [1]; 1 of 3 (dose: 400.0 mg/kg/injection, schedule: Q04DX002 (ip), vehicle: other); 1 of 6 under setting [2].

Regarding `NNC(=O)CNc1ccc(Br)cc1`, the survivor count (dose: 400.0 mg/kg/injection, schedule: Q04DX002 (ip), vehicle: Klucel (hydroxypropylcellulose) (HPC)) is on record as 0 of 3.

Take `Brc1ccc[n+](Cc2ccccc2)c1`: the survivor count is, setting by setting: (dose: 150.0 mg/kg/injection, schedule: Q01DX001 (ip), vehicle: saline) 0 of 6; (dose: 300.0 mg/kg/injection, schedule: Q01DX001 (ip), vehicle: saline) 0 of 6.

On to `O=[N+]([O-])c1cccc(NCn2c(=S)[nH]c3ccccc32)c1`, for which the survivor count under setting [3] was 0 of 6.

With `COC(=O)C1=C(C(=O)OC)C2CC1C1OC21` (stereo unspecified), the survivor count (dose: 400.0 mg/kg/injection, schedule: Q01DX009 (ip), vehicle: saline) is 0 of 6.

As for `Oc1cc(O)c(CN(CCCl)CCCl)cc1CN(CCCl)CCCl`, for the setting “dose: 12.5 mg/kg/injection, schedule: Q01DX009 (ip), vehicle: saline”, the T/C was 125 % of control. Besides, the survivor count was 6 of 6 (dose: 37.5 mg/kg/injection, schedule: Q01DX009 (ip), vehicle: saline); 5 of 6 (dose: 75.0 mg/kg/injection, schedule: Q01DX009 (ip), vehicle: saline); 5 of 6 under setting [4]; 2 of 6 (dose: 150.0 mg/kg/injection, schedule: Q01DX009 (ip), vehicle: saline); 3 of 6 under setting [5]; 3 of 6 under setting [6].

In the case of `CCC[As](=O)(O)C(C)C`, the survivor count under setting [5] is 3 of 6 and the survivor count under setting [6] was 0 of 6.

As to `CCCCCSP(=O)(SCCCCC)c1ccccc1`, under setting [3], the survivor count is 0 of 6.

As for `CCN(CC)C(=O)c1ccc([N+](=O)[O-])cc1`, the survivor count under setting [7] is reported as 3 of 6.

Consider `CCC[N+](CCC)(CCC)Cc1ccccc1`, for which the survivor count (dose: 40.0 mg/kg/injection, schedule: Q01DX001 (ip), vehicle: saline) is 1 of 4; the survivor count (dose: 50.0 mg/kg/injection, schedule: Q01DX001 (ip), vehicle: saline) is 0 of 4; the survivor count (dose: 80.0 mg/kg/injection, schedule: Q01DX001 (ip), vehicle: saline) is 0 of 4; the survivor count (dose: 100.0 mg/kg/injection, schedule: Q01DX001 (ip), vehicle: saline) is listed as 0 of 4; the survivor count (dose: 200.0 mg/kg/injection, schedule: Q01DX001 (ip), vehicle: saline) is recorded as 0 of 4; the survivor count (dose: 400.0 mg/kg/injection, schedule: Q01DX001 (ip), vehicle: saline) is listed as 0 of 4.

Regarding `CN(C)CCC(c1ccccc1)(c1ccccc1)c1ccccc1`, the survivor count under setting [8] was 0 of 4.

With `O=c1[nH]cc(C(F)(F)F)c(=O)[nH]1`, the survivor count by setting is: (dose: 4.0 mg/kg/injection, schedule: Q01DX Z (oral), vehicle: methylcellulose (MC)) 2 of 6; (dose: 8.0 mg/kg/injection, schedule: Q01DX Z (oral), vehicle: methylcellulose (MC)) 2 of 6; (dose: 16.0 mg/kg/injection, schedule: Q01DX Z (oral), vehicle: methylcellulose (MC)) 0 of 6. Further, the T/C (dose: 300.0 mg/kg/injection, schedule: Q01DX Z (ip), vehicle: saline) is 129 % of control.

Take `CCCCCCCCCCCCCCC1=NCCN1`: the survivor count reads like this: (dose: 75.0 mg/kg/injection, schedule: Q01DX001 (ip), vehicle: acetone) 2 of 6; (dose: 150.0 mg/kg/injection, schedule: Q01DX001 (ip), vehicle: acetone) 0 of 6; (dose: 300.0 mg/kg/injection, schedule: Q01DX001 (ip), vehicle: acetone) 0 of 6.

On to `O=C(C=C(C(F)(F)F)C(F)(F)F)c1ccco1`, for which the survivor count under setting [9] is 1 of 6.

In the case of `CCCCCCCCSCCCCCCCCCCCSCCCCCCCC`, under “dose: 400.0 mg/kg/injection, schedule: Q01DX001 (ip), vehicle: Klucel (hydroxypropylcellulose) (HPC)”, the survivor count is recorded as 6 of 6.

Take `CN=NNc1ccccc1`: the T/C is 134 % of control (dose: 28.0 mg/kg/injection, schedule: Q01DX009 (ip), vehicle: saline); 147 % of control (dose: 42.0 mg/kg/injection, schedule: Q01DX009 (ip), vehicle: saline); 125 % of control (dose: 75.0 mg/kg/injection, schedule: Q04DX003 (ip), vehicle: saline with Tween-80); 145 % of control (dose: 100.0 mg/kg/injection, schedule: Q04DX003 (ip), vehicle: saline with Tween-80); 141 % of control (dose: 150.0 mg/kg/injection, schedule: Q04DX003 (ip), vehicle: saline with Tween-80); 129 % of control (dose: 225.0 mg/kg/injection, schedule: Q04DX003 (ip), vehicle: saline with Tween-80).

`CCc1csc(=S)[nH]1`: the survivor count under setting [7] is reported as 1 of 6.

Regarding `c1ccc(-c2oc3cc4c(cc3c2-c2ccc(OCCN3CCCC3)cc2)CCC4)cc1`, the survivor count reads like this: under setting [1], 6 of 6; under setting [2], 6 of 6.

In the case of `CC1=C(CO)C(=O)O[C@@H]([C@@H](C)[C@H]2CC[C@H]3[C@@H]4C[C@H]5O[C@]56[C@@H](O)C=CC(=O)[C@]6(C)[C@H]4CC[C@]23C)C1`, the survivor count (dose: 40.0 mg/kg/injection, schedule: Q01DX Z (ip), vehicle: carboxymethylcellulose (CMC)) is listed as 2 of 4.

Take `CCc1ccc(N=O)cc1`: the survivor count reads like this: (dose: 100.0 mg/kg/injection, schedule: Q01DX001 (ip), vehicle: carboxymethylcellulose (CMC)) 2 of 4; (dose: 200.0 mg/kg/injection, schedule: Q01DX001 (ip), vehicle: carboxymethylcellulose (CMC)) 0 of 4; under setting [8], 0 of 4.

For the compound `CCN(CC)CC(=O)NCC(CCN(C)C)(CCN(C)C)c1cccc2ccccc12`, the survivor count under setting [10] is given as 6 of 6 and the survivor count under setting [11] is on record as 6 of 6.

`O=C(Nc1ccccc1C(=O)NC1CCCC1)NC1CCCC1`: under setting [7], the survivor count is 6 of 6.

For `CCCCCCCCCCSCCSCCSCCCCCCCCCC`, the survivor count by setting is: (dose: 200.0 mg/kg/injection, schedule: Q04DX003 (ip), vehicle: Klucel (hydroxypropylcellulose) (HPC)) 6 of 6; under setting [7], 6 of 6.

For the compound `CC[CH2][Sn]([CH2]CC)([CH2]CC)[O]C(=O)C(Cl)(Cl)Cl`, the survivor count (dose: 6.25 mg/kg/injection, schedule: Q01DX009 (ip), vehicle: saline with Tween-80) was 0 of 3; the survivor count (dose: 12.5 mg/kg/injection, schedule: Q01DX009 (ip), vehicle: saline with Tween-80) is given as 0 of 3; the survivor count (dose: 25.0 mg/kg/injection, schedule: Q01DX009 (ip), vehicle: saline with Tween-80) was 0 of 3 and 0 of 6; the survivor count under setting [9] is on record as 0 of 6; the survivor count under setting [4] is 0 of 6; the survivor count under setting [10] is recorded as 0 of 6. The survivor count under setting [11] is recorded as 0 of 6.
